Experimental data published in US20030166014A1.
Results are given in words; binding and its absence hold for the method and conditions named. Some entries that bind do so weakly or less than the wild type.

Amino acid sequences for entries named in this document (tags omitted). A change or cut given only in a name is not applied to a line headed by its entry. Chains listed by the source or under a name are the forms on record and can include a tag or linker.
recombinant peritoneal Hp (rpHp) 2-2 (P00738, form named): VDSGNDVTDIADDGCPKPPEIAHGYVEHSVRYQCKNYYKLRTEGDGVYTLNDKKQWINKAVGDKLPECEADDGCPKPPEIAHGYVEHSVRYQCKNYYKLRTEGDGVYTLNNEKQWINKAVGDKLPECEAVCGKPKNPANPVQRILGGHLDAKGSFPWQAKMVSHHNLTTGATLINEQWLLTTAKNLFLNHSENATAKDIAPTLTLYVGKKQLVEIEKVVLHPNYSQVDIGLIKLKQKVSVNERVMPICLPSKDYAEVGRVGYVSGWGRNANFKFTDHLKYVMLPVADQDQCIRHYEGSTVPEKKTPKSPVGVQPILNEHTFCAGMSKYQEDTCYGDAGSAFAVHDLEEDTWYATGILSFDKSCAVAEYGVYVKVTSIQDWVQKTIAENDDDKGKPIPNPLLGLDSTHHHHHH

Key:
[1] = target: T1, Lotus tetragonolobus lectin (LTL) (Lotus tetragonolobus) (UniProt P19664); test: lectin binding studies (ELISA and blotting), compared with sHp
T1 sequence (looked up): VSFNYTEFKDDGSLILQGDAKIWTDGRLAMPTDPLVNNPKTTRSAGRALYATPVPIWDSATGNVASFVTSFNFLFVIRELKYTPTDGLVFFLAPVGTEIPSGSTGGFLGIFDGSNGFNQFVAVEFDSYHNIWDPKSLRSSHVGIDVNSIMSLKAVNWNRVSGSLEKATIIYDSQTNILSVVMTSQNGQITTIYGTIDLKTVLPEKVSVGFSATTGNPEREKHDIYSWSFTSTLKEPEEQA

[2] = target: T1, Lotus tetragonolobus lectin (LTL) (Lotus tetragonolobus); test: lectin-blotting analysis
[3] = target: T1, Lotus tetragonolobus lectin (LTL) (Lotus tetragonolobus); test: lectin ELISA

Measured: binding

recombinant peritoneal Hp (rpHp) 2-2 (from UniProt P00738 19-406)
binds: all assays above
